Experimental data from publication PMC10755004, “Pyrimidine salvage in Toxoplasma gondii as a target for new treatment” (Frontiers in Cellular and Infection Microbiology, 2023).

Tested on: T. gondii tachyzoites
Test: Uptake of tritiated pyrimidines by T. gondii tachyzoites over time
Type: cell-based, Toxoplasma gondii
Conditions: for Saturable: uptake of radiolabel in presence of excess unlabeled permeant

Row | SMILES | uptake rate relative to uridine (0.1 µM [3H]-uracil vs 0.1 µM [3H]-uridine) | Saturable | Saturable (listed as [^3H]-uracil) | uptake rate relative to thymidine (0.2 µM [3H]-cytidine vs 0.25 µM [3H]-thymidine)
1 | O=c1cc[nH]c(=O)[nH]1 [Uracil] | ~ 2.5 fold | Yes | fully saturable | 
2 | Nc1ccn([C@@H]2O[C@H](CO)[C@@H](O)[C@H]2O)c(=O)n1 [Cytidine] |  | Yes |  | > 4 fold
3 | Cc1cn([C@H]2C[C@H](O)[C@@H](CO)O2)c(=O)[nH]c1=O [Thymidine] |  | No |  | 
